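Viability assay of Plasmodium falciparum sporozoites; the read-out is not stated. The concentration is filed as 10 mM, unlikely as a test dose, so the dose is not known. Higher reads as lower viability (inferred: compounds with an IC50 in retests scored well above the rest). Strong results were mostly tested again. Size under these conditions: about 34,000 compounds, about 280 of them at 50% or above in at least one test.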

Each number is a percent effect as filed. The record does not define 0% and 100%; most values in the screen are far below 50% and negative numbers occur (in some assays of this library far below -100). The compounds are a random part of those screened. Two or more numbers in one place are separate tests of the same structure; such repeats can differ widely.

Compound,Percent Effect
O=C(CCCc1nc(-c2ccccc2)no1)N1CCN(CCO)CC1,11.73
Cn1ccc(C(=O)NCc2ccc(N3CCCC3)nc2)cc1=O,-19.36
Cc1ccccc1OC1CCN(CC(=O)Nc2cn(C)nc2C)CC1,14.58
O=C(NC[C@]1(O)CN(Cc2ccc(F)cc2)C[C@H]1O)c1ccccn1,4.657
CC(C)(C)CN1CCCC(c2nccnc2Nc2cnccn2)C1 (stereo not shown),6.074
CCCc1c(C(=O)N2CCN(c3nccc(OC)n3)CC2)cnn1C,3.842
CC(C)OCCNC(=O)C1CCC(=O)N(C2CCCC2)C1 (stereo not shown),-13.61
CC(C)(C)OC(=O)N1CCN(c2ccc(F)cc2)CC1C(=O)O (stereo not shown),4.859
CC(C)(C)c1n[nH]c(C2CN(C(=O)c3cc(C4CC4)on3)CCO2)n1 (stereo not shown),-8.681
COc1cc(C(=O)NC(C)(C)CN2CCN(C)CC2)c2ccccc2n1,-0.3167
O=C(c1c[nH]nn1)N1CCN(C(c2ccccc2)C(F)(F)F)CC1 (stereo not shown),-1.207
Cc1cnn(CC2CCCCN2CCS(C)(=O)=O)c1 (stereo not shown),-5.521
CCc1cc(C(=O)N2CCCC(Cc3ccc(NC)nn3)C2)on1 (stereo not shown),5.523
Cn1cc(CCC(=O)N2CCCN(c3ncccc3C#N)CC2)cn1,23.89
CCc1cc(N2CCC(NCCc3ccccc3F)CC2)nc(C)n1,1.97
COCCn1ccc2c(NC(=O)c3n[nH]c4c3CCC4)cccc21,-3.571 & -16.58 & -12.91
O=C(C[S+]([O-])Cc1c(Cl)cccc1Cl)N1CCc2sccc2C1 (stereo not shown),8.705
O=C(N[C@@H]1CN(Cc2cccc(F)c2)C[C@H]1O)c1cscn1,7.699
CC(C)c1nccn1C1CCCN(C(=O)CCc2cscn2)C1 (stereo not shown),0.8079
CCC(=O)NCc1cc(Br)c(OC)c(OC)c1,-7.94
COc1cccc(CC(=O)N2CC[C@@H](OC)[C@@H]2Cc2cccnc2)c1.O=C(O)C(F)(F)F,-4.024
Cn1cc(N2CCC3(CCN(Cc4nccs4)C3)C2=O)cn1.O=C(O)C(F)(F)F (stereo not shown),-4.343
CN1CCOC(CNCCc2ccccn2)C1 (stereo not shown),27.38

Once more, the final 2:

* Cn1cc(N2CCC3(CCN(Cc4nccs4)C3)C2=O)cn1.O=C(O)C(F)(F)F (stereo not shown) | -4.343%
* CN1CCOC(CNCCc2ccccn2)C1 (stereo not shown) | 27.38%

The values are deposited in ChEMBL (CHEMBL3988442, “University of Dundee, Small-Polar-MMV Screening Library” (2021)).